## Screening data, single-dose tests

Amino acid sequences for entries named in this document (tags omitted).
UniProt P9WPC5, whole entry: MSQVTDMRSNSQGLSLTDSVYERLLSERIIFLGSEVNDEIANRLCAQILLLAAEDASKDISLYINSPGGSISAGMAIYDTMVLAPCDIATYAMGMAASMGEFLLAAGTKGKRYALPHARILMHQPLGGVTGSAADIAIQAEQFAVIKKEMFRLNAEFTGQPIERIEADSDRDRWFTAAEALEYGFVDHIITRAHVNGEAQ
UniProt P9WPC3, whole entry partner: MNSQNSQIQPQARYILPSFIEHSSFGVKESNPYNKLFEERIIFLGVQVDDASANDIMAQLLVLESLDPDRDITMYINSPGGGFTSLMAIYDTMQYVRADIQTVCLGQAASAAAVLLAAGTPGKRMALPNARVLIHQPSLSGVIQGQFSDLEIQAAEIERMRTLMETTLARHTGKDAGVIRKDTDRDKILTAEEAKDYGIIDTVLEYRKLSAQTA

From ChEMBL document CHEMBL3988442, “University of Dundee, Small-Polar-MMV Screening Library” (2021).

Results are given as percent effect.
The record does not define 0% and 100%; most values in the screen are far below 50% and negative numbers occur (in some assays of this library far below -100).
The compounds are a random part of those screened.

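Protease assay of ClpP1P2, read by the AMC dye that it sets free. Target: ClpP1P2, Mycobacterium tuberculosis (UniProt P9WPC5 and UniProt P9WPC3). Concentration: 50 µM. Direction is inferred from only a few compounds that gave an IC50; most scored high, so higher reads as stronger inhibition. Most other retested compounds had strongly negative values. About 69,000 compounds were tested under these conditions; 0.015% (about 10) showed 50% or more at least once.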

NC(=O)c1c(-c2ccc(Cl)cc2Cl)csc1NC(=O)CCCC(=O)O gave -18.02%. For Cc1cc(C)c(CNC(=O)NCC(O)COc2ccccc2)c(=O)[nH]1 (stereo not given) the result was -6.158%. COc1ccc(F)cc1S(=O)(=O)N1CCC(Oc2ccc(Cl)cn2)CC1 gave -4.338%. With O=C(c1ccc2[nH]ccc2c1)N1Cc2nc(CN3CCCC3)oc2C1 the screen gave -12.87%. Result for CN(C)CCNc1cc(-c2ccc[nH]c2=O)c2cc[nH]c2n1 was 0.6311%. For Cc1noc(C)c1C(=O)N1CCC2(CC1)c1nc[nH]c1CCN2C the result was -3.638%.

For CCc1n[nH]c(C2CN(C(=O)c3cncnc3CC)CCO2)n1 (stereo not given) the result was 19.19%. For Cc1ccc(CN2Cc3nccn3CC(Cn3cccn3)C2)s1 (stereo not given) the result was 5.438%. For COc1ncc(C2(O)CCN(Cc3cccc(F)c3F)CC2)c(OC)n1 the result was -15.85%. Result for CC(C)(C)NC(=O)CNc1ncc(Br)cn1 was -9.639%. For CC(C)c1nnc2n1CCN(Cc1nc3c(F)cccc3[nH]1)C2 the result was -7.419%. CCNC(=O)N(C)C1CCCc2nc(C)sc21 (stereo not given) read -7.396%.

For Cc1noc(C)c1CN(Cc1cccs1)C1CCS(=O)(=O)C1 (stereo not given) the result was -19.84%. CCSCCN1CCCN(S(C)(=O)=O)CC1 read 33.09%. CC1CCC(N2CCC(NS(=O)(=O)CCOC(C)C)CC2)CC1 (stereo not given) read 4.529%. COc1cc(C)sc1C(=O)NCCC(=O)N(C)Cc1ccccc1 gave -10.18%. With CC(O)CN(c1ccccc1)S(=O)(=O)c1cc(C(=O)O)cc2c1CCC2 (stereo not given) the screen gave -1.494%. With Cc1noc([C@]23COC[C@H]2CN(C(=O)COC2CCCC2)C3)n1 the screen gave -4.833%.

Result for CCCc1noc(CCC(=O)N2CCN(C)CC2c2ccccc2)n1 (stereo not given) was -3.312%. O=C(NC1CC1)N1C[C@H]2CN(c3ccccc3)C(=O)[C@H]2C1 gave 4.548%. O=C(NCC1CCCO1)c1cc(-c2ccc3c(c2)CCO3)n[nH]1 (stereo not given) read -5.913%. Cc1ccc(C2(O)CCN(C(=O)c3sccc3S(N)(=O)=O)CC2)nc1 read 3.447%. O=C(CCc1cnn(-c2ccccc2)c1)N1CCCC(n2cccn2)C1 (stereo not given) gave 2.829%. For CNc1cc(C2CCCN2S(=O)(=O)c2cccc(F)c2)ccn1 (stereo not given) the result was 9.957%.

For Cn1[nH]c(C2CCC2)c(-c2ccc3c(c2)OCO3)c1=N the result was -4.336%. Cc1nn(C)c(N(C)C)c1CNCc1nnc2n1CCCCC2 gave 0.2726%. Result for O=C(Cn1cc(C2CC2)nn1)NC(c1cc(F)ccc1F)C1CC1 (stereo not given) was -12.88%. N#Cc1cc(C#N)c(SCC(=O)Nc2ccc(F)cc2)nc1N gave -14.13%. With O=C1C[C@@H]2CCN(Cc3ccccc3)C[C@@H]2CCN1C1CCCCC1 the screen gave -8.388%. With O=C(NCC1CCCO1)c1c(-n2cnnn2)sc2c1CCC2 (stereo not given) the screen gave -5.037%.

CC(=O)N1CC[C@@]2(O)CCCC[C@H]2[C@@H]1c1ccc2c(c1)OCO2 read -3.985%. COc1c(F)cc(-c2cn(CCn3c(C)cc(C)nc3=O)nn2)cc1Cl read -6.896%. For CCS(=O)(=O)N1CCOC2(CCCN(c3ncc(F)cn3)C2)C1 (stereo not given) the result was 0.8972%. For Cc1cc(C)n(CCNCc2cc(-c3ccccc3)c[nH]c2=O)n1 the result was -101%. With COCC1CN(C(=O)Cc2ccccn2)Cc2c1cnn2CC1CC1 (stereo not given) the screen gave -19.43%. For CC(C)Cc1cc(C(=O)N2CCC(C(=O)N3CCOCC3)CC2)on1 the result was 7.051%.

Cc1cc(C(F)(F)F)nn1CC(C)C(=O)NC(C)C (stereo not given) gave -10.83%. Cc1cc(NC(=O)NC(C)(C)c2nc(C)c(C)s2)no1 gave -4.851%. With O=S1(=O)NC2(CCCN(CCc3ccccc3)C2)COc2ccccc21 (stereo not given) the screen gave -3.899%. For Cc1cc(Cc2ccc(S(=O)(=O)N3CCCC3)cc2)c(=O)[nH]n1 the result was -8.882%. Cc1nc2c(c(C)c1CC(=O)NCc1cccc(C#N)c1)c(=O)[nH]n2C gave -0.08941%. For COc1cc(CNCc2c(C)nn(C)c2N(C)C)ccc1OCCO the result was -32.88%.